Literature values, collected in paper PMC9146934 (Membranes, 2022).

Tests used:
Conditions in all cases: read-out: EC50 for GABA; cited from earlier work
A. pisum RDL1ad = test system: A. pisum RDL1ad
A. pisum RDL1bd = test system: A. pisum RDL1bd
A. pisum RDL2b = test system: A. pisum RDL2b

In the case of NCCCC(=O)O [GABA, γ-aminobutyric acid], the EC50 (A. pisum RDL1ad) is listed as 23 ± 2 µM, the EC50 (A. pisum RDL1bd) is listed as 51 ± 9.1 µM and the EC50 (A. pisum RDL2b) is listed as 28 ± 5.4 µM.
